# Source: PubChem BioAssay AID686937 (Drosophila RNAi Screening Center, 2013)
# Test: 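Knock-downs that reduce output of a secreted reporter enzyme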 (primary screen)
# Cells: Drosophila S2 cells expressing secreted horseradish peroxidase
# Knock-down reagent: long dsRNA against Drosophila genes
# Time to read-out: about 5.5 days (5 days dsRNA, then 12 h reporter induction)
# Conditions: reporter expression induced after 5 days of dsRNA, read 12 h later; inducer not stated
# Measured: 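After 5 days of dsRNA and 12 h of reporter induction, medium peroxidase read by chemiluminescence and scored as per-plate z-score; higher values mean more reporter released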
# Direction: z-score: higher = more reporter secreted into medium
# The screen tested about 23,000 reagents; shown is an unselected part of those that have a named target and a result. 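Reduced-secretion tags in replicate 1 do not always agree with the z-scores; no criterion for assigning the tags was given.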 Names joined by + are all predicted targets of the reagent. Not stated in the record: the amount of reagent.
The opening 6 records, to show the layout:
Target gene,dsRNA,"z-score, replicate 1","z-score, replicate 2","phenotype, replicate 1"
Not11 (GeneID 37839),DRSC04204,0.28,-0.35,
fabp + sea,DRSC16114,0.41,0.41,
fabp + sea,DRSC16115,0.7,0.68,
CG11911 (GeneID 33206),DRSC00331,0.16,0.46,
CG5902 (GeneID 42839),DRSC15912,0.14,0.15,
rho-4 (GeneID 32109),DRSC19761,0.2,0.42,

Results, from the first entry:
Target gene,dsRNA,"z-score, replicate 1","z-score, replicate 2","phenotype, replicate 1"
Not11 (GeneID 37839),DRSC04204,0.28,-0.35,
fabp + sea,DRSC16114,0.41,0.41,
fabp + sea,DRSC16115,0.7,0.68,
CG11911 (GeneID 33206),DRSC00331,0.16,0.46,
CG5902 (GeneID 42839),DRSC15912,0.14,0.15,
rho-4 (GeneID 32109),DRSC19761,0.2,0.42,
rho-4 (GeneID 32109),DRSC19762,0.38,0.41,
PIP5K59B (GeneID 37633),DRSC04290,0.5,0.6,
PIP5K59B (GeneID 37633),DRSC04403,0.53,0.44,
Cyp317a1 (GeneID 36667),DRSC07366,0.25,0.15,
Dhrs4 (GeneID 38598),DRSC09773,0.39,0.43,
Ssdp (GeneID 42177),DRSC16211,0.45,0.71,
CG12546 (GeneID 40483),DRSC11676,0.21,0.18,
CG13438 (GeneID 37348),DRSC06398,0.42,0.34,
Nap1 (GeneID 37798),DRSC04626,0.09,-0.09,
CG18493 (GeneID 42319),DRSC15334,0.28,0.35,
thr (GeneID 37042),DRSC07706,0.15,0.25,
CG6066 (GeneID 43267),DRSC15959,0.39,0.44,
CG6066 (GeneID 43267),DRSC22228,1.34,2.17,
RluA-2 (GeneID 34440),DRSC02939,0.43,0.22,
CG7091 (GeneID 41590),DRSC12944,0.63,0.2,
CG7091 (GeneID 41590),DRSC16197,0.36,-0.13,
CG14740 (GeneID 41468),DRSC14960,0.22,0.29,
CG31872 (GeneID 34458),DRSC02568,-0.08,0.19,
CG31872 (GeneID 34458),DRSC02572,0.27,0.43,
CG15071 (GeneID 37153),DRSC06504,0.22,0.27,
elg1 (GeneID 39770),DRSC10229,0.36,0.5,
CR30029 (GeneID 5740197),DRSC06724,0.26,0.33,
CG30020 (GeneID 36156),DRSC06252,0.8,0.38,
CG30020 (GeneID 36156),DRSC06730,-0.67,-0.68,
mop (GeneID 39610),DRSC11065,0.21,0.26,
mbm (GeneID 33194),DRSC00319,0.16,0.34,
RpL37-2 (GeneID 37669),DRSC04584,0.03,0.22,
Sld5 (GeneID 43166),DRSC14892,0.42,0.44,
CG2225 (GeneID 35421),DRSC03722,0.13,0.11,
CG2225 (GeneID 35421),DRSC03723,0.17,0.36,
hng1 (GeneID 37412),DRSC04555,-0.01,0.18,
Jhbp3 (GeneID 40611),DRSC12247,-3.69,-0.22,reduced secretion
Adck5 (GeneID 39260),DRSC10890,0.46,0.46,
CG11263 (GeneID 39472),DRSC09832,0.21,0.35,
CG2200 (GeneID 32258),DRSC19840,0.27,0.39,
Or59a (GeneID 37711),DRSC04631,0.03,0.25,
Clic (GeneID 32349),DRSC19364,0.11,0.41,
CG13313 (GeneID 39022),DRSC09984,0.41,0.27,
CG3732 (GeneID 37588),DRSC04410,0.05,0.17,
Rich (GeneID 40456),DRSC11607,-0.02,-0.44,
mthl11 (GeneID 117467),DRSC12779,0.26,0.39,
CG17385 (GeneID 36603),DRSC06664,0.53,0.58,
P5cr-2 (GeneID 42106),DRSC15889,0.39,0.64,
CG4911 (GeneID 39043),DRSC10456,0.38,0.31,
CG13891 (GeneID 38066),DRSC08361,0.4,0.21,
CG10560 (GeneID 43065),DRSC14256,-0.14,-0.3,
stet (GeneID 38169),DRSC08246,0.16,0.32,
stet (GeneID 38169),DRSC08283,-3.15,-1.86,reduced secretion
CG17726 (GeneID 41349),DRSC15255,0.57,0.27,
sog (GeneID 32498),DRSC20379,-0.28,-0.51,
